# Results: the supplement of paper PMC11732987, “Enantioselective OTUD7B fragment discovery through chemoproteomics screening and high-throughput optimisation” (Communications Chemistry, 2025)
# By UniProt entry, the sequences of proteins in these tests, tags left out. Where a name states a change or a piece, a line headed by the entry shows the natural chain unless it says otherwise. Residues count along the entry.
# UniProt P51610: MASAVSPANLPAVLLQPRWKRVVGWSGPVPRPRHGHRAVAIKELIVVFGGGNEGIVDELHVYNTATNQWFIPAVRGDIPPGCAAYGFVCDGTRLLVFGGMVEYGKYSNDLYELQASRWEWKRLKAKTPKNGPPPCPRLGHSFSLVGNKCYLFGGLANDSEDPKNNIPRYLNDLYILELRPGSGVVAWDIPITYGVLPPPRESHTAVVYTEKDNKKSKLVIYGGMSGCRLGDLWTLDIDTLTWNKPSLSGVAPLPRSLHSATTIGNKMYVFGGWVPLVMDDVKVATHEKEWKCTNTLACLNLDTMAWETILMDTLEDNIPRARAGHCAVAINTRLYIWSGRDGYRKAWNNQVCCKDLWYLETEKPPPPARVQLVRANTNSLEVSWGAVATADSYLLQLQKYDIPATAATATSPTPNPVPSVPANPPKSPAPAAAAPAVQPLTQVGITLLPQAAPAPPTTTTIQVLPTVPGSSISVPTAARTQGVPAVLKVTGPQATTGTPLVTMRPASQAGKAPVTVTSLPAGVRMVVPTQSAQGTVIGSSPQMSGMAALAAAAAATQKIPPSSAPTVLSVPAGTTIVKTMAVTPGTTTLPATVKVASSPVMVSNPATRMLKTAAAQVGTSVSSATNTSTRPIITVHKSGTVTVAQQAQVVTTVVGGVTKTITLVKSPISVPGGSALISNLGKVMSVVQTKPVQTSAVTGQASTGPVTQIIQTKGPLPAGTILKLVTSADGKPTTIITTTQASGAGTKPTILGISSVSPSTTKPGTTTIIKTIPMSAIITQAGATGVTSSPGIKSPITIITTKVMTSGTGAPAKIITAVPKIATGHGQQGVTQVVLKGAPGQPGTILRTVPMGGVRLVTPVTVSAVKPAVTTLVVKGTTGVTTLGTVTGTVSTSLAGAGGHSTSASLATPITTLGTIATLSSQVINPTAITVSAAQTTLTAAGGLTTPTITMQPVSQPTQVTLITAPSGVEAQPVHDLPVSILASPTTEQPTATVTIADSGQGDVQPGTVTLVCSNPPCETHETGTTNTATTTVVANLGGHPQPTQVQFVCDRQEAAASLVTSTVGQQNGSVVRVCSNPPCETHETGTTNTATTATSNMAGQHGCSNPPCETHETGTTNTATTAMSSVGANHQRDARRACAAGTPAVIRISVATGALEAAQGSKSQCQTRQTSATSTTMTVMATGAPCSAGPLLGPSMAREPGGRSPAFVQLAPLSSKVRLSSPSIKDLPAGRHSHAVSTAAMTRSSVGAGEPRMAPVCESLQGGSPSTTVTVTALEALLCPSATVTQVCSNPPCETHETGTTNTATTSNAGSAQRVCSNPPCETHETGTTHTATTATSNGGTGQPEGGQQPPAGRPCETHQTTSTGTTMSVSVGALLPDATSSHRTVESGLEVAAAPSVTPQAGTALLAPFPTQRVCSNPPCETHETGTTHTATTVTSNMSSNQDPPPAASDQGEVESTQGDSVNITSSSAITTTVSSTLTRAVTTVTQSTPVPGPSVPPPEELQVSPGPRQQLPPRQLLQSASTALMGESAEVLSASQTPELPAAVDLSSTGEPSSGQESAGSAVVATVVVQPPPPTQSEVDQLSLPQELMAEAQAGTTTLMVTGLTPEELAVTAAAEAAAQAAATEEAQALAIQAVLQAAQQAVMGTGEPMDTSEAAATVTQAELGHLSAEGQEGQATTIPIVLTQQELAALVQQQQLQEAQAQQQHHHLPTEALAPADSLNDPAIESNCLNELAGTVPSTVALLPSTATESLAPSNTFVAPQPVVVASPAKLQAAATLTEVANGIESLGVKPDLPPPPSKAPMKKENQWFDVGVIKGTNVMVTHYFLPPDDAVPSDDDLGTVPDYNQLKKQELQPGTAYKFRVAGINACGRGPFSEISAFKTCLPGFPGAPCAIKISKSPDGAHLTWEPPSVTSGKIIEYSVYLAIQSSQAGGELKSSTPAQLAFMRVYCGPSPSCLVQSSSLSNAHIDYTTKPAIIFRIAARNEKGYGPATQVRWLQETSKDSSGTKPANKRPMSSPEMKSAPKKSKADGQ
# UniProt Q9H6D7: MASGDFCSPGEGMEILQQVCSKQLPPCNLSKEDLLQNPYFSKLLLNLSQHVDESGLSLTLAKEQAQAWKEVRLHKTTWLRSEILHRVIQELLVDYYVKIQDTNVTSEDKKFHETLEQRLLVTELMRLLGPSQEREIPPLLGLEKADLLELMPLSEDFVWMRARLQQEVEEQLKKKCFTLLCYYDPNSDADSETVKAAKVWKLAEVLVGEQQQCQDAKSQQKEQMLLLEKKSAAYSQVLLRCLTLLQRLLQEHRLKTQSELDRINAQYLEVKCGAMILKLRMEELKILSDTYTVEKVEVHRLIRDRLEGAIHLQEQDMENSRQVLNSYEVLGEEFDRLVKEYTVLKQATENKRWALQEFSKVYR
# UniProt Q14527: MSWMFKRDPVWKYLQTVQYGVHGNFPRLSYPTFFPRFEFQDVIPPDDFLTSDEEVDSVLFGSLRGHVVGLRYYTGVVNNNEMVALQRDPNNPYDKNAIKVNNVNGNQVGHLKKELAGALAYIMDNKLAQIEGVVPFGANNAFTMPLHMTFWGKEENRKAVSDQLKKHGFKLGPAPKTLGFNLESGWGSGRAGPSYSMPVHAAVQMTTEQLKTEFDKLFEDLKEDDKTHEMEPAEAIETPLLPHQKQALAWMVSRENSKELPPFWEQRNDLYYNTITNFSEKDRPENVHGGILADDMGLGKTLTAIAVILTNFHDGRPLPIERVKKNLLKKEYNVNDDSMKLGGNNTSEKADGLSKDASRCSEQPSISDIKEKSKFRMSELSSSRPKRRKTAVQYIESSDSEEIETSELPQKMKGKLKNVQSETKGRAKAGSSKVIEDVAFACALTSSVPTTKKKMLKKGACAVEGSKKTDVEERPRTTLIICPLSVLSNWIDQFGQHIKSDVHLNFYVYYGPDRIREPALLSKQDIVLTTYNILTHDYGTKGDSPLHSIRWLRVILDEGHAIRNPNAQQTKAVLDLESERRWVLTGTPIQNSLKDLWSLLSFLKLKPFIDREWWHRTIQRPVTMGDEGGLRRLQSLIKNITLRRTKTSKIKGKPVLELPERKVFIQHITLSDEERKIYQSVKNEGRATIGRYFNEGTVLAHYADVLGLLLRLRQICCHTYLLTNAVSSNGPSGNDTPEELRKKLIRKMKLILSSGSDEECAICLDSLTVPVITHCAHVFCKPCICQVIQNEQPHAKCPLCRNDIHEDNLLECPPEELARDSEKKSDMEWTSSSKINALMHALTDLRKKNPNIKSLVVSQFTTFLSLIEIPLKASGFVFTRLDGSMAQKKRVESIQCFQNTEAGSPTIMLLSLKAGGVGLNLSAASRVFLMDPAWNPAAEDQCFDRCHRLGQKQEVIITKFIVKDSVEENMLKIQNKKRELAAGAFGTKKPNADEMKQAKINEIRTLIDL
# UniProt Q12789: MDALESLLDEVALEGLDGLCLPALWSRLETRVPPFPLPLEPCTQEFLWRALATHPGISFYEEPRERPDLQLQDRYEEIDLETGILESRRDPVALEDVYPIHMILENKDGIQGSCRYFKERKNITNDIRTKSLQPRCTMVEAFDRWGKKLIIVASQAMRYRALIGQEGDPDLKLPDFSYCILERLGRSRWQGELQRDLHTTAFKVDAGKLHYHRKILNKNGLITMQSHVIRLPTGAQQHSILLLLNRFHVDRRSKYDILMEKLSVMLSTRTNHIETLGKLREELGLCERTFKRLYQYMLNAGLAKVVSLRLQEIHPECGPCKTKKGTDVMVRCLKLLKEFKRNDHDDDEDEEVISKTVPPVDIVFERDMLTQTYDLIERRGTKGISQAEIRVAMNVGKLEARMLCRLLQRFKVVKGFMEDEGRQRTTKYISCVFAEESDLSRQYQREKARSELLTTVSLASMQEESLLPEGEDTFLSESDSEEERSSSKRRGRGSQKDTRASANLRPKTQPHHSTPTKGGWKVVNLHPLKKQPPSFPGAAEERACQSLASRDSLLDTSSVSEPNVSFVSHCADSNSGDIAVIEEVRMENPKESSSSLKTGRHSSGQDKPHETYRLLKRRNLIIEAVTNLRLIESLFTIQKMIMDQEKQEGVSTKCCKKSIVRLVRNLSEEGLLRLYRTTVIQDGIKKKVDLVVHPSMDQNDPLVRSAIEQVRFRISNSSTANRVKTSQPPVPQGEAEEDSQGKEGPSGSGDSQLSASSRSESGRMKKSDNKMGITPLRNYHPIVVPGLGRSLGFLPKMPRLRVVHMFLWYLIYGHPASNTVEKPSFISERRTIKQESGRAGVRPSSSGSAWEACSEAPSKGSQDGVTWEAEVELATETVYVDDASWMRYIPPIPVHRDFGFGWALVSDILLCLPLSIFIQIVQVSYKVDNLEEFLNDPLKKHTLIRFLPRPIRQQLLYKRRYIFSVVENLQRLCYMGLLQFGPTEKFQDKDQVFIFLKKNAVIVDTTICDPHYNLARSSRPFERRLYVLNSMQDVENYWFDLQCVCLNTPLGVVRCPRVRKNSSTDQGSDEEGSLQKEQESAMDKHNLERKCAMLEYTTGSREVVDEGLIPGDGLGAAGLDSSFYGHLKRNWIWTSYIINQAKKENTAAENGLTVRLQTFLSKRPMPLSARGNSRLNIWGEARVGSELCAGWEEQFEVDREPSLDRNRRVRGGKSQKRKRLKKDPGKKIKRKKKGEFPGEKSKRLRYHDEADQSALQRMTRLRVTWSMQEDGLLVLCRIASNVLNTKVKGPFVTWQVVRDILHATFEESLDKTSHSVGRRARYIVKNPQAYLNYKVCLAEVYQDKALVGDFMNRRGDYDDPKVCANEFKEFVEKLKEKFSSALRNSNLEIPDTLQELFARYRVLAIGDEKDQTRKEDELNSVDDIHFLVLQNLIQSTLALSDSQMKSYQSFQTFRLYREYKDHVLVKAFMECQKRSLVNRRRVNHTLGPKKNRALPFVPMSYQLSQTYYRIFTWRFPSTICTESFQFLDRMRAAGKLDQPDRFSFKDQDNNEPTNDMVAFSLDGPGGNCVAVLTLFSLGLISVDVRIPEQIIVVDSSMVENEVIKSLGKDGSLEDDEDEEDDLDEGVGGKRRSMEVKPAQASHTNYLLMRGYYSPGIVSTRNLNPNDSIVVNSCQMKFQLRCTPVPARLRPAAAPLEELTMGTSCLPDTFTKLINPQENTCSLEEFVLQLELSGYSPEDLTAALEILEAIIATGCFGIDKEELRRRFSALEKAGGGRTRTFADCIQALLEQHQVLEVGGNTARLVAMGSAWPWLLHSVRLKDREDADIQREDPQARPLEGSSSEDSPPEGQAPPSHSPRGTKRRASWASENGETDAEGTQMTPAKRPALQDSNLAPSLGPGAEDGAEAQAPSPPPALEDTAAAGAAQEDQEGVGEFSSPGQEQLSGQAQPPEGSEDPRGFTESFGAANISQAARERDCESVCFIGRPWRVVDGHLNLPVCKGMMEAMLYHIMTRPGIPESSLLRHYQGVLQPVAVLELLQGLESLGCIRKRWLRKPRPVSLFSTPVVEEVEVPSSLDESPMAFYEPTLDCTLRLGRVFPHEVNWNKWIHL
# UniProt Q15751, 1427-1448: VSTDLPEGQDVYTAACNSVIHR
# UniProt P28161: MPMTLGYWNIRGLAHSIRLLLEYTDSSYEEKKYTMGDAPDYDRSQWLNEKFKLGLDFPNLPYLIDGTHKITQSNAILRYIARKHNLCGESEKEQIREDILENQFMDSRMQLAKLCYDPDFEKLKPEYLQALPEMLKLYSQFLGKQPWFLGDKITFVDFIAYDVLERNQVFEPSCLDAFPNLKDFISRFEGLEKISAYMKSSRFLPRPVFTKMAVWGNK
# UniProt Q1KMD3, 33-58: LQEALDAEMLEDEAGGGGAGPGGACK
# UniProt Q8WVV9: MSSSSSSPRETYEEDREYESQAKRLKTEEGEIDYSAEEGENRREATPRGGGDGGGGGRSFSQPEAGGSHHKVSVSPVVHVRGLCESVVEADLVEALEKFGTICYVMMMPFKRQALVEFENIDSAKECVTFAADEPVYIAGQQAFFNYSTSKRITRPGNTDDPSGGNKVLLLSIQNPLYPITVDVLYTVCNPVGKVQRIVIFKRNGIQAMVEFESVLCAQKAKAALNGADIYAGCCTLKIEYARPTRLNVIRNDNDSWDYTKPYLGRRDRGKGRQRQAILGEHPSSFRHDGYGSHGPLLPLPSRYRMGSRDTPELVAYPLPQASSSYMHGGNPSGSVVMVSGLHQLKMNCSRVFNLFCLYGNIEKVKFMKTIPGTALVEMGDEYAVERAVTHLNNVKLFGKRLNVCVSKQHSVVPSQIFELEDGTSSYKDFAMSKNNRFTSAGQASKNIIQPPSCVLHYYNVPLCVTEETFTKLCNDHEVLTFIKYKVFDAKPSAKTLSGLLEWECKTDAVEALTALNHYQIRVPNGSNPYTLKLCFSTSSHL
# UniProt P52657, whole entry, looked up: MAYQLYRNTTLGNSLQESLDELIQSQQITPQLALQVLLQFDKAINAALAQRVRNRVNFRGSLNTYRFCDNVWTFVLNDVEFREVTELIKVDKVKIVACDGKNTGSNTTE
# The list shows a part of the results. The data scatter; read single values as rough.
# Compound: ClCC(=O)N[C@H]1CCCc2ccccc12
# Experiment: log2 mean competition ratio of IA-DTB cysteine labelling (DMSO/compound) (log2 ratio); higher = stronger cysteine engagement by compound
# Conditions: 50 µM; treatment time: 4 h; cell line lysate: HEK293T
# Protocol: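 IA-DTB competitive cysteine chemoproteomics in HEK293T RIPA lysate. Lysates were treated with compound 29 or 30 at 50 or 200 µM for 4 h, then IA-DTB (500 µM, 1 h), trypsin-digested, NeutrAvidin-enriched and analysed by diaPASEF. Competition ratio = intensity DMSO / intensity compound (n=4 treated, n=64 DMSO); binding: mean log2 CR ≥ 1 and p ≤ 0.05 plus QC filters. Target is the cysteine site.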
row,Target,log2 mean competition ratio
1,HOXA11 C82,-0.488
2,HK2 C813 (UniProt P52789),0.161
3,HJURP C348 (UniProt Q8NCD3),0.0681
4,HCFC1 C135 (UniProt P51610),0.022
5,HAUS4 C213 (UniProt Q9H6D7),-0.626
6,HLTF C942 (UniProt Q14527),0.508
7,GTF3C1 C179 (UniProt Q12789),-0.403
8,HARS1 C235,0.0695
9,HDLBP C940,-0.0777
10,HERC1 C4837 (UniProt Q15751),0.253
11,HOXB13 C211,-0.122
12,GSTM2 C115 (UniProt P28161),-0.327
13,HERC1 C1442 (UniProt Q15751),-0.0463
14,HNRNPUL2 C57 (UniProt Q1KMD3),0.489
15,GTF3C2 C828 (UniProt Q8WUA4),-0.401
16,HNRNPLL C405 (UniProt Q8WVV9),0.414
17,HMGCR C382 (UniProt P04035),-0.128
18,HNRNPLL C84 (UniProt Q8WVV9),0.357
19,HECTD4 C1912,-0.284
20,GTF2A2 C98 (UniProt P52657),0.163

# Same assay, conditions: 200 µM; treatment time: 4 h; cell line lysate: HEK293T
row,Target,log2 mean competition ratio
1,HOXA11 C82,0.131
2,HK2 C813 (UniProt P52789),0.0593
3,HJURP C348 (UniProt Q8NCD3),0.238
4,HCFC1 C135 (UniProt P51610),-0.13
5,HAUS4 C213 (UniProt Q9H6D7),-0.00721
6,HLTF C942 (UniProt Q14527),0.305
7,GTF3C1 C179 (UniProt Q12789),-0.061
8,HARS1 C235,-0.172
9,HDLBP C940,0.228
10,HERC1 C4837 (UniProt Q15751),0.0117
11,HOXB13 C211,0.369
12,GSTM2 C115 (UniProt P28161),-0.128
13,HERC1 C1442 (UniProt Q15751),-0.124
14,HNRNPUL2 C57 (UniProt Q1KMD3),-0.0903
15,GTF3C2 C828 (UniProt Q8WUA4),-0.105
16,HNRNPLL C405 (UniProt Q8WVV9),0.24
17,HMGCR C382 (UniProt P04035),0.14
18,HNRNPLL C84 (UniProt Q8WVV9),-0.358
19,HECTD4 C1912,0.0689
20,GTF2A2 C98 (UniProt P52657),-0.00296
